Laboratory results reported in US20240108725A1, “METHOD FOR TREATING CANCER AND SYSTEM FOR SAME” (OTSUKA MEDICAL DEVICES CO., LTD, priority 2020, published 2024).

Key:
C6 cells = assay: Rate of dead cells after 5-ALA PDT in erythrocyte solution, C6 cells, Example 3; type: cell-based, rat
Method: (§1) C6 cells or human leukemia cell line TL-Oml cells were cultured in 2.5% FBS/F-12K medium (C6 cells) or 10% FBS/RPMI1640 (TL-Oml cells) supplemented with 5-ALA to a final concentration of 0.125 to 0.5 mM in a 5% CO2 incubator at 37° C. for 4 hours. After the culture, the cells were removed with a 0.25% trypsin-EDTA solution, and the collected cells were adjusted to 2×10^7 cells/mL with an erythrocyte solution (a solution in which erythrocytes and PBS were mixed at a ratio of 45:55). The cell suspension thus prepared was injected into a Tygon tube (inner diameter: 0.79 mm), wrapped around a light irradiator, and irradiated with light having a wavelength of 630 nm so that the irradiation energy density was 0.5 to 500 J/cm^2. After the irradiation, an ammonium chloride solution was added to the cell suspension to hemolyze the erythrocytes. Cells before the PDT treatment, after the PDT treatment, and after 24-hour culture were stained with the FITC Annexin V Apoptosis Detection Kit I and the rate of dead cells was analyzed with a flow cytometer.

TL-Om1 cells = assay: Rate of dead cells after 5-ALA PDT in erythrocyte solution, TL-Om1 cells, Example 3; type: cell-based, human; conditions: TL-0m1 cells
Method: as §1

NCC(=O)CCC(=O)O [5-ALA, 5-aminolevulinic acid]
irradiation energy density at which living cells immediately after irradiation were 8% or more and 24 hours after irradiation 2% or more lower (C6 cells; 5-ALA 0.25 mM): 2.5-300 J/cm^2 | irradiation energy density at which living cells immediately after irradiation were 8% or more and 24 hours after irradiation 2% or more lower (C6 cells; 5-ALA 0.5 mM): 2.5-350 J/cm^2 | irradiation energy density at which living cells immediately after irradiation were 8% or more and 24 hours after irradiation 2% or more lower (TL-Om1 cells; 5-ALA 0.25 mM): 10-500 J/cm^2 | irradiation energy density at which living cells immediately after irradiation were 8% or more and 24 hours after irradiation 2% or more lower (TL-Om1 cells; 5-ALA 0.5 mM): 2.5-500 J/cm^2
